Source: paper PMC10035947, “Development of novel anilinoquinazoline-based carboxylic acids as non-classical carbonic anhydrase IX and XII inhibitors” (Journal of Enzyme Inhibition and Medicinal Chemistry, 2023)

What follows are compounds tested on 59 human cancer cell lines representing nine tumour subpanels (assay: NCI SRB assay, panel and subpanel summaries). Conditions: 10 μM, GI% higher than 20%.
In the case of Cc1ccc(-c2nc(Nc3ccc(C(=O)O)cc3)c3ccccc3n2)cc1 [8b, 4-((2-(p-Tolyl)quinazolin-4-yl)amino)benzoic acid], the “Number of sensitive cell lines” value was 30. For COc1ccc(-c2nc(Nc3ccccc3C(=O)O)c3ccccc3n2)cc1 [6c, 2-((2–(4-Methoxyphenyl)quinazolin-4-yl)amino)benzoic acid], the “Number of sensitive cell lines” value was 56. For Cc1cccc(-c2nc(Nc3ccccc3C(=O)O)c3ccccc3n2)c1 [6a, 2-((2-(m-Tolyl)quinazolin-4-yl)amino)benzoic acid], the “Number of sensitive cell lines” value was 56. With Cc1ccc(-c2nc(Nc3cccc(C(=O)O)c3)c3ccccc3n2)cc1 [7b, 3-((2-(p-Tolyl)quinazolin-4-yl)amino)benzoic acid] the “Number of sensitive cell lines” value was 21. In the case of Cc1cccc(-c2nc(Nc3ccc(C(=O)O)cc3)c3ccccc3n2)c1 [8a, 4-((2-(m-Tolyl)quinazolin-4-yl)amino)benzoic acid], the “Number of sensitive cell lines” value was 25. In the case of Cc1ccc(-c2nc(Nc3ccccc3C(=O)O)c3ccccc3n2)cc1 [6b, 2-((2-(p-Tolyl)quinazolin-4-yl)amino)benzoic acid], the “Number of sensitive cell lines” value was 58.
